Reference: paper PMC5709413
No constants are given. Whether binding was seen depends on the method and setting. In cells and extracts the contact can be indirect. Some binding calls cover weakened binding; strength is not graded here. Where a sequence is shown, tags or fusion partners need not be part of it.

Protein sequences, listed by entry. Tags and fused reporters are not part of them.
UniProt Q8CGC7: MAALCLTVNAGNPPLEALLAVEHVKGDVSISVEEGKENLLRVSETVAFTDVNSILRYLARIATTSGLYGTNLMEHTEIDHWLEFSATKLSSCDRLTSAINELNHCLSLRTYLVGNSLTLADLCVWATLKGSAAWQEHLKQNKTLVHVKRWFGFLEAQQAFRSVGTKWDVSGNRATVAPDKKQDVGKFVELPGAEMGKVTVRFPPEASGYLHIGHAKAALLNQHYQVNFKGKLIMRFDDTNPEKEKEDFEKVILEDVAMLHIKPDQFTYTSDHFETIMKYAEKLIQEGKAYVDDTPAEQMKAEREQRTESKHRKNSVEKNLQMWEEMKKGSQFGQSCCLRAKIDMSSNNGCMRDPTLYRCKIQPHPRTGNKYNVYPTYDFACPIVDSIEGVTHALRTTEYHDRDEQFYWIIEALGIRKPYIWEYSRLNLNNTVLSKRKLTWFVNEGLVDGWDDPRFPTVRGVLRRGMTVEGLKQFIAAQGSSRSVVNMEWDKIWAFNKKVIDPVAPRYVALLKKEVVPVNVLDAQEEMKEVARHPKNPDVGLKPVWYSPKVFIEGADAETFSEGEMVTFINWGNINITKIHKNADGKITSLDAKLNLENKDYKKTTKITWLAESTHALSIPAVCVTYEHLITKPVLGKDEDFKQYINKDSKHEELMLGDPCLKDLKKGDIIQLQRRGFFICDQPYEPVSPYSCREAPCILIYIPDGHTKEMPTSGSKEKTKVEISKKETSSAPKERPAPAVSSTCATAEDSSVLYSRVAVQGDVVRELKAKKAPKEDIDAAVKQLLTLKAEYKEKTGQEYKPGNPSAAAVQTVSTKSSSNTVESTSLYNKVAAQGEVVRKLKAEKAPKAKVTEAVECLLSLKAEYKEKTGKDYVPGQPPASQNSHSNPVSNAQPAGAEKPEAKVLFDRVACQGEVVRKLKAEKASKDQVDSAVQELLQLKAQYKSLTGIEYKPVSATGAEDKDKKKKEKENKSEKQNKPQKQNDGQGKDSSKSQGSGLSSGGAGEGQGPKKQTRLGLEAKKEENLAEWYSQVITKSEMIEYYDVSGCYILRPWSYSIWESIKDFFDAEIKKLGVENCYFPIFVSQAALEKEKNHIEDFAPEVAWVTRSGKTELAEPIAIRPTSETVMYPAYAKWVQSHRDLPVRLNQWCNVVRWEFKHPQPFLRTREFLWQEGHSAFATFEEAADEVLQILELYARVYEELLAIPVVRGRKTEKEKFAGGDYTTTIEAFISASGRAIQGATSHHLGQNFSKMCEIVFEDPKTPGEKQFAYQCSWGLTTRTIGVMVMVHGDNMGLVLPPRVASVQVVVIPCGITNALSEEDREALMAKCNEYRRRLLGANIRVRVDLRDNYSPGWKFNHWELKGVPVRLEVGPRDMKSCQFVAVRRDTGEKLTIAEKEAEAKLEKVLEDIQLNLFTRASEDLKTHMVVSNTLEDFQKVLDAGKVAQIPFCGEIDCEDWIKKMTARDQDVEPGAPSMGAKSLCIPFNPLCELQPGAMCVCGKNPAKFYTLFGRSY

T1: BEX1 (wild-type, untagged, from BEX1 transgenic mouse hearts) (UniProt Q9R224)
T1 sequence: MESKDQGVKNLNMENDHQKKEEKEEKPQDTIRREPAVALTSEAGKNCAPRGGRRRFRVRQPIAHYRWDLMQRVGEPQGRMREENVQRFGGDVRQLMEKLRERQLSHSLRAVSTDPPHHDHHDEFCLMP

T2: GST-BEX1 (brain-expressed X-linked protein 1 fused to glutathione-S-transferase) (UniProt Q9R224)
T2 sequence: T1 sequence

B1: BEX1 (wild-type, untagged, from BEX1 transgenic mouse hearts) (protein, UniProt Q9R224 1-128)
chain: T1 sequence

Assays:
[1] = biological target: T1, BEX1 (wild-type, untagged, from BEX1 transgenic mouse hearts); assay: co-IP; BEX1 immunoprecipitated with anti-BEX1 (IgG as control) from BEX1 transgenic mouse hearts; Western blot for the endogenous partners
[2] = biological target: T2, GST-BEX1 (brain-expressed X-linked protein 1 fused to glutathione-S-transferase); assay: pull-down; GST-BEX1 incubated with cardiac extracts of WT mouse hearts, without micrococcal nuclease; Western blot of the partners; only the target purified
[3] = biological target: Glutamyl-Prolyl-tRNA Synthetase (EPRS) (mouse (endogenous in mouse heart)) (UniProt Q8CGC7); assay: co-IP; reverse: endogenous DDX1, DDX3x, EPRS, PHF11 or hnRNPH1 immunoprecipitated with specific antibodies (IgG as control) from a BEX1 transgenic mouse heart; Western blot for BEX1

| Molecule | binding [1] | binding [2] | binding [3] |
| --- | --- | --- | --- |
| Glutamyl-Prolyl-tRNA Synthetase (EPRS) (from UniProt Q8CGC7 1-1512) | binds | binds |  |
| B1 |  |  | binds |
